These are yes or no findings as the source states them, for the method shown. Some binding calls cover weakened binding; strength is not graded here.

The chains behind the UniProt entries cited, without tags or fusion partners. Where a name states a change or a piece, a line headed by the entry shows the natural chain unless it says otherwise.
UniProt Q13421: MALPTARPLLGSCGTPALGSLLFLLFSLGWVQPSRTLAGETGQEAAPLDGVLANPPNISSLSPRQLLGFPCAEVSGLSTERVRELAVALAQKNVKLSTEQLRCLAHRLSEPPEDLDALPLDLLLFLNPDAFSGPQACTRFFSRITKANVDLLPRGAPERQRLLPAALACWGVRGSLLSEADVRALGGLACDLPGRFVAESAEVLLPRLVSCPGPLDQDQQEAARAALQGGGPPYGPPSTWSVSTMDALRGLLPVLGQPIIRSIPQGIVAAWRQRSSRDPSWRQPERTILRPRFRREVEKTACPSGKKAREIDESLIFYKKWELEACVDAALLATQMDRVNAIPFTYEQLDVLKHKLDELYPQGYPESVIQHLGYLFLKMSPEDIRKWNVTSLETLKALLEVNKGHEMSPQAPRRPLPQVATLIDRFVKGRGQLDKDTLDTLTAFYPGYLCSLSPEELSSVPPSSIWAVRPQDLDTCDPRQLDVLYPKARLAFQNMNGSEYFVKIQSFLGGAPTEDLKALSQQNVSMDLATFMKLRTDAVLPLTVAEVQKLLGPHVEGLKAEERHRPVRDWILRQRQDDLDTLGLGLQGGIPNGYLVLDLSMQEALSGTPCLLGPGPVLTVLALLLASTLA

The values below come from patent publication US20250250357A1.

The target of this experiment is human MSLN-R3 protein (ELISA of Example 8) (human) (UniProt Q13421). The experiment is described as follows: ELISA, coated human MSLN-R3 protein. (In an ELISA, binding on a coated surface is turned into a signal by an enzyme label.)

B1: F3.38.10-L2H3a (scFv, not shown: small tags and cut ends)
scFv: DIVMTQSPDSLAVSLGERATINCRSSQSLIHSDGNTYLQWYQQKPGQSPKLLIYKVSNRFSGVPDRFSGSGSGTDFTLTISSLQAEDVAVYYCSQTTHVPFTFGQGTKLEIKGGGGSGGGGSGGGGSEVQLVQSGAEVKKPGASVKVSCKASGYIFTDYYMNWVRQAPGQRLEWMGVINPKQGVISHNQKFKGRVTITVDKSANTAYMELSSLRSEDTAVYYCANYGSRFYAMDYWGQGTTVTVSS
For B1, the binding result is recorded as “binds”.
